Results are given in words; binding and its absence hold for the method and conditions named. Where a sequence is shown, tags or fusion partners need not be part of it.
Biological target: T1, His6-tagged A. thaliana PEX5 PTS1-binding domain (residues 340-728), wild type (Arabidopsis thaliana) (UniProt Q9FMA3)
T1 sequence: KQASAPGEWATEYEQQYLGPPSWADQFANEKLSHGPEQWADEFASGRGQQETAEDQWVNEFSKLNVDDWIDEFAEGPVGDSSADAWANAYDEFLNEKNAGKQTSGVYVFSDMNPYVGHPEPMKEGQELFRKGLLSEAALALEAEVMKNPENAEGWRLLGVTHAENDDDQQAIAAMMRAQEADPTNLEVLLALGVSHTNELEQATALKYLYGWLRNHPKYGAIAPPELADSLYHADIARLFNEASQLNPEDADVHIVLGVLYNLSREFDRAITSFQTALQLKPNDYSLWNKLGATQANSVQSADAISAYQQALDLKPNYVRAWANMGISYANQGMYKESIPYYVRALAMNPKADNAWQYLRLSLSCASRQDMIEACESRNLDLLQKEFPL
Assay: pull-down; His6-protein (12.5 µM) incubated with the combined dansyl-YQSXX library (500 nM each peptide) in 50 mM Na2HPO4, 300 mM NaCl, 10 mM 2-mercaptoethanol, 15% glycerol, pH 8.0, 4 °C, 1 h; captured on Co-NTA resin, washed, bound peptides eluted with 6 M urea and identified by ESI-LC-MS; semi-quantitative; both purified

B1: dansyl-YQSFY (peptide)
peptide: YQSFY
modifications: dansyl on the N-terminus; C-terminal CO2H
binding: no binding (tested: 500 nM each peptide, 12.5 µM protein)
